Reference: PubChem BioAssay AID1224827 (NIAID, 2016)
Shown is a random part of about 3,800 deposited reagents. About 2,200 of all reagents (57%) were called active. 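Active means a strong reporter change in either direction; calls are per siRNA, not per gene; qiagen siRNAs gave weaker effects.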 Unmarked entries are inactive. The numbers tell different reagents against one gene apart. Further read-outs or replicates are left out here.

- Test: 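Confirm genes whose knock-down changes LPS-driven TNF promoter activity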 (follow-up of hits)
- System: RAW264.7 G9 mouse macrophage reporter clone
- Reagent: single siRNA against mouse genes, 100 nM siRNA
- Time to read-out: siRNA for 2 days, then LPS about 16 h
- Treatment: bacterial lipopolysaccharide (LPS), 10 ng/ml, cells fixed after overnight (about 16 h) stimulation
- Read-out: 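Imaged nuclear TNF reporter intensity, background removed, scaled per plate and to non-targeting control wells, as z-scores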
- Reading the numbers: TNF reporter z-score, mean: higher = stronger Tnf promoter reporter signal
- Rule for the call: 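An siRNA is called active when its mean z-score over replicates is at least +2 or at most -2; control wells get no call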

Target gene	reagent no.	TNF reporter z-score, mean
Ammecr1l	1	0.505
Ammecr1l	2	-4.57 (active)
Ammecr1l	3	-5.3 (active)
Ammecr1l	4	4.21 (active)
Ammecr1l	5	0.875
Ammecr1l	6	-1.39
Chst14	1	3.04 (active)
Chst14	2	3.31 (active)
Chst14	3	1.21
Chst14	4	-0.521
Chst14	5	-2.1 (active)
Chst14	6	-2.47 (active)
Gadd45g	1	-1.73
Gadd45g	2	-3.61 (active)
Gadd45g	3	-4.23 (active)
Gadd45g	4	0.611
Gadd45g	5	-0.372
Gadd45g	6	-1.16
Slc5a6	1	2
Slc5a6	2	-3.73 (active)
Slc5a6	3	-3.62 (active)
Slc5a6	4	1.42
Slc5a6	5	0.351
Slc5a6	6	-1.85
Plekho2	1	-0.586
Plekho2	2	-3.98 (active)
Plekho2	3	-4.86 (active)
Plekho2	4	2.67 (active)
Plekho2	5	0.0553
Plekho2	6	-1.58
Lce3c	1	5.17 (active)
Lce3c	2	0.013
Lce3c	3	-0.991
Lce3c	4	3.79 (active)
Lce3c	5	0.896
Lce3c	6	-0.701
Dgcr8	1	-3.58 (active)
Dgcr8	2	-3.9 (active)
Dgcr8	3	-4.4 (active)
Dgcr8	4	1.14
Dgcr8	5	-2.41 (active)
Dgcr8	6	-2.81 (active)
Tnfrsf11b	1	0.576
Tnfrsf11b	2	-1.38
Tnfrsf11b	3	-2.91 (active)
Tnfrsf11b	4	-1.86
Tnfrsf11b	5	-2.91 (active)
Tnfrsf11b	6	-5.01 (active)
Brd4	1	-3.4 (active)
Brd4	2	-3.04 (active)
Brd4	3	-5.29 (active)
Brd4	4	1.92
Brd4	5	0.87
Brd4	6	-2.4 (active)
Hdac7	1	8.26 (active)
Hdac7	2	1.5
Hdac7	3	-4.95 (active)
Hdac7	4	-0.00429
Hdac7	5	-1.77
Hdac7	6	-2.69 (active)
